Numbering of substitutions follows the chain as printed. Results are given in words; binding and its absence hold for the method and conditions named. A result given as binding can be weak or reduced; the word gives no strength.

Assay [1] addresses E. coli-expressed recombinant cynomolgus IL-13 (cynomolgus). The assay can be described thus: Western blot after denaturing SDS-PAGE. In general terms: Immunoblotting shows a protein as a band on a membrane.
Assay [2] shares this target. The assay can be described thus: BIAcore.
For assay [3] the target is unchanged. The assay can be described thus: sandwich ELISA, CHO supernatant and purified antibody. (In general: ELISA stands for enzyme-linked immunosorbent assay.)
The target is the same in assay [4]. The assay can be described thus: sandwich ELISA.

B1: monoclonal antibody 6A1 (antibody, IgG1, V domains shown)
VH: EIQLQQSVAELVRPGASVRLSCTASGFYIKDTYMHWVIQRPEQGLEWIGTIDPANGNTKYVPKFQGKATITADTSSNTAYLRLSSLTSEDTAIYYCARSIYDDYHYDDYYAMDYWGQGTSVTVSS
VL: DVLMTQTPLSLPVSLGDQASISCRSSQNIVHINGNTYLEWYLQKPGQSPKLLIYKISDRFSGVPDRFSGSGSGTDFTLKISRVEAEDLGVYYCFQGSHVPWTFGGGTKLEIK
On to B1, for which the binding result in assay [1] and in assay [2] was “binds” each time.

B2: chimaeric 6A1 (antibody, human IgG1, V domains shown)
VH: B1 VH
VL: B1 VL
Take B2: the binding result in assay [3] and in assay [4] was “binds” each time.

B3: L1+A1 (antibody, human IgG1, kappa, V domains shown)
VH: QVQLVQSGAEVKKPGSSVKVSCKASGFYIKDTYMHWVRQAPGQGLEWMGTIDPANGNTKYVPKFQGRVTITADESTSTAYMELSSLRSEDTAVYYCARSIYDDYHYDDYYAMDYWGQGTLVTVSS
VL: DIVMTQSPLSLPVTPGEPASISCRSSQNIVHINGNTYLEWYLQKPGQSPRLLIYKISDRFSGVPDRFSGSGSGTDFTLKISRVEADDVGIYYCFQGSHVPWTFGQGTKLEIKR
For B3, the binding entry in assay [4] is “binds”.

B4: L2+A1 (antibody, human IgG1, kappa, V domains shown)
VH: B3 VH
VL: B3 VL with I90V
On to B4, for which the binding result in assay [4] is recorded as “binds”.
